Residue numbers refer to the chain shown, from its start. Results are given in words; binding and its absence hold for the method and conditions named. For some assays here: Binding seen in cells or lysates may run through a third protein. Some results given as binding are weak or reduced against the parent protein; the word gives no strength. Sequences can lack the tags named with a protein.
What was measured:
[1] = biological target: T1, mouse ADAT3 A180V, His-tagged (mouse) (UniProt Q6PAT0); assay: crystal structure; crystal structure of the mouse ADAT2/ADAT3-A180V complex at 2.9 Å; both purified
T1 sequence: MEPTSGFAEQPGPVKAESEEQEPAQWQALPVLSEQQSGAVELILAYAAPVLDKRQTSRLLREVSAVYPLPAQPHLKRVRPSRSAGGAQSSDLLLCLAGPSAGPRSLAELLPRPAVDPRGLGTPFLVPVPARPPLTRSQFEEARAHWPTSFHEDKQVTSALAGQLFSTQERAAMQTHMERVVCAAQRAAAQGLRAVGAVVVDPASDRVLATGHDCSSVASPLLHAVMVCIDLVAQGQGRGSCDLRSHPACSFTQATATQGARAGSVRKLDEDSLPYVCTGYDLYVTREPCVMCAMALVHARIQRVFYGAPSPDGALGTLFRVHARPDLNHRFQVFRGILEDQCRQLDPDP

By UniProt entry, the sequences of proteins in these tests, tags left out.
UniProt Q6P6J0: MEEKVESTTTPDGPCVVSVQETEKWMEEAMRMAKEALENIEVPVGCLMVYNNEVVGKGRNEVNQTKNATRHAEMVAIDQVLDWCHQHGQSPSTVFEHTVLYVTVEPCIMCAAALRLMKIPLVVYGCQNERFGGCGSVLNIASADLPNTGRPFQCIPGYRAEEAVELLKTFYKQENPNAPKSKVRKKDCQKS

[2] = biological target: T2, mouse ADAT3 A180L, His-tagged (mouse) (UniProt Q6PAT0); assay: pull-down; untagged ADAT2 co-expressed in E. coli with His-tagged ADAT3 (WT or mutant); His-tag affinity purification of the soluble fraction, SDS-PAGE
T2 sequence: T1 sequence with V180L

[3] = biological target: T1, mouse ADAT3 A180V, His-tagged (mouse); assay: as above
[4] = biological target: T3, mouse ADAT3 V128M, His-tagged (mouse) (UniProt Q6PAT0); assay: as above
T3 sequence: T1 sequence with V128M, V180A

[5] = biological target: T4, mouse ADAT3 wild type, His-tagged (mouse) (UniProt Q6PAT0); assay: as above
T4 sequence: T1 sequence with V180A

Measured: binding

mouse ADAT2 (wild type, untagged) (from UniProt Q6P6J0 1-191) (enzyme)
binds: all assays above

— PMC12404733
